Among all 330,000 compounds or so, about 7,700 (2.3%) were called active. The shares of active, inactive and inconclusive entries below differ from those in the screen. Calls follow the shape of the dose curve; as a rule, active = well fitted inhibition curve with a large enough effect; inconclusive = small, poorly fitted or top-dose-only effect, or effect the other way; inactive = flat fitted curve, though single readings scatter. Potencies of inconclusive entries are doubtful fits and often do not repeat.
Assay: qHTS screen for small molecules that inhibit ELG1-dependent DNA repair in human embryonic kidney (HEK293T) cells expressing luciferase-tagged ELG1; also: nearly all actives have a fitted effect of over 55% in size
Conditions: HEK293T ELG1-luciferase reporter, luminescence, 16 h, DNA damage induced by 5-fluorouridine; series mostly up to 46.1 µM
In short: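 Reporter activity after DNA damage by 5-fluorouridine is monitored. Compound-treated cells incubate 16 hr at 37 °C, then ONE-Glo is added for 30 min before luminescence reading.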
Potency is read from the fitted curve at half-maximal effect.

| Structure (SMILES) | Potency |
| --- | --- |
| O=C(CSc1ccc(Cl)cc1)Nc1ccc(N2CCN(c3ccccc3)CC2)c(F)c1 | inactive |
| COCCOc1cc(NC(=O)c2sccc2Oc2ccc([N+](=O)[O-])cc2F)c(Cl)cc1Cl | inactive |
| O=C(COC(=O)c1cc(S(=O)(=O)N2CCOCC2)c(Cl)cc1Cl)NC1CC1 | inconclusive: 32.6 µM [activator, partial curve, poor fit] |
| O=C(/C=C/c1cccc([N+](=O)[O-])c1)NCCSc1ccccc1 | inconclusive: 29.1 µM [inhibitor, single point] |
| Cc1ccc(C(OCC(C)(C)C[N+](C)(C)C)c2ccccc2)cc1 (stereo not drawn) | inconclusive: 29.1 µM [inhibitor, single point] |
| COc1ccc(CNC(=O)CN(C(=O)c2csnn2)c2cccc(F)c2)cc1 | inconclusive: 32.6 µM [activator, partial curve, poor fit] |
| CC(C)(C)C(=O)Nc1nnc(CSCc2ccccc2F)s1 | inconclusive: 16.4 µM [activator, partial curve] |
| Cc1ccc(CN2CC(C(=O)NCCCSc3ccccc3)CC2=O)cc1 (stereo not drawn) | inactive |
| O=C(COc1ccc(S(=O)(=O)Nc2cccc(C(F)(F)F)c2)cc1)N1CCOCC1 | inactive |
| Cc1nn(-c2ccc(N3CCCCC3)nn2)c(C)c1CCC(=O)Nc1cccc(F)c1 | inconclusive: 3.26 µM [activator, partial curve] |
| O=C(CSc1nc2ccccc2c(=O)n1-c1ccc(F)cc1F)c1c[nH]c2ccccc12 | inconclusive: 20.6 µM [inhibitor, partial curve] |
| CCCn1nnnc1NC(=O)c1ccc2ccccc2c1 | inconclusive: 16.4 µM [activator, single point] |
| Cc1cc(C)nc(NS(=O)(=O)c2ccc(N3C(=O)C4CC=C(Cl)CC4C3=O)cc2)n1 (stereo not drawn) | inconclusive: 29.1 µM [activator, single point] |
| COCCN(C(=O)COC(=O)/C=C/c1ccc(C(F)(F)F)cc1)c1c(N)n(Cc2ccccc2)c(=O)[nH]c1=O | inactive |
| CC1CCCN(C(=O)NC2CC(=O)N(c3ccc4c(c3)OCCO4)C2)C1 (stereo not drawn) | inactive |
| Cc1ccc2nc(-c3ccccn3)cc(C(=O)NCCc3ccc(F)cc3)c2c1 | inactive |
| CC1CCN(CCCNC(=O)COc2cc(=O)n(C)c3ccccc23)CC1 | inconclusive: 18.4 µM [activator, partial curve] |
| CCN(CC(=O)NC1CCS(=O)(=O)C1)S(=O)(=O)c1cc(C)ccc1C (stereo not drawn) | inactive |
| CC(C)Oc1cccc(C(=O)C2CCCN(Cc3cnc(N4CCCC4)s3)C2)c1 (stereo not drawn) | inconclusive: 20.6 µM [inhibitor, single point] |
| CC1CC(=O)c2cnc(Nc3cccc(C(F)(F)F)c3)nc2C1 (stereo not drawn) | inactive |
| COC(=O)[C@]1(C)N[C@H](CN(C)S(=O)(=O)c2ccc(C(F)(F)F)cc2)[C@@H]2C(=O)N(C)C(=O)[C@@H]21 | inactive |
| CCOc1cc(C)c(Cl)cc1S(=O)(=O)n1nnc2ccccc21 | inconclusive: 29.1 µM [inhibitor, single point] |

At a glance, part of the list above.

| Structure (SMILES) | Potency |
| --- | --- |
| O=C(CSc1ccc(Cl)cc1)Nc1ccc(N2CCN(c3ccccc3)CC2)c(F)c1 | inactive |
| COCCOc1cc(NC(=O)c2sccc2Oc2ccc([N+](=O)[O-])cc2F)c(Cl)cc1Cl | inactive |

Remaining list, next part

| Structure (SMILES) | Potency |
| --- | --- |
| CCCN1CCN(C(=S)Nc2ccccc2C(F)(F)F)CC1 | inconclusive: 11.6 µM [inhibitor, partial curve] |
| CC1CN(C(=O)COC(=O)c2ccc3ncsc3c2)CC(C)O1 (stereo not drawn) | inconclusive: 29.1 µM [activator, single point] |
| CCN(CC(=O)NCc1ccc(Cl)cc1)C(=O)CCOc1ccc(C)cc1 | inactive |
| CC1(C)C(=O)Nc2ccccc2N1C(=O)COC(=O)c1cccc(O)c1 | inconclusive: 29.1 µM [inhibitor, single point] |
| Cc1cccc2cc3c(NC(=O)C(C)C)nn(C)c3nc12 | inconclusive: 20.6 µM [inhibitor, partial curve, poor fit] |
| Cc1cccc(N2CCN(C(=O)C3CCC(=O)N(C4CC4)C3)CC2)c1C (stereo not drawn) | inactive |
| S=C(Nc1ccccc1Cl)Nc1ccc(Cl)cc1Cl | inactive |
| CC1=C(C(=O)OC(C)C)C(c2cccs2)N2C(=O)C(C)SC2=N1 (stereo not drawn) | inconclusive: 29.1 µM [inhibitor, partial curve, poor fit] |
| Cc1ccc(/C=c2\s/c(=C(/C#N)C(=O)N3CCCC3)n(Cc3ccco3)c2=O)s1 | active: 12.6 µM |
| CNC(=O)NC(=O)CSc1ccc(NC(C)=O)cc1 | inconclusive: 0.103 µM [inhibitor, partial curve, poor fit] |
| COC(=O)CSc1nc2sc3c(c2c(=O)n1C1CCCCC1)CCN(C)C3 | inactive |
| CCC(=O)N(C1=C(NC(C)C)C(=O)c2ccccc2C1=O)C(C)C | inconclusive: 20.6 µM [inhibitor, single point] |
| O=C(c1cc(N2C(=O)C3C4CCC(C4)C3C2=O)ccc1Cl)N1CCN(c2ccc(F)cc2)CC1 (stereo not drawn) | inconclusive: 18.4 µM [inhibitor, single point] |
| COc1ccc(-c2sc3cc4c(cc3c2C#Cc2ccc(N)cc2)OCO4)cc1 | inconclusive: 29.1 µM [activator, single point] |
| Cc1c(C#N)c2ccccc2n1CC(=O)NCCc1c[nH]c2ccccc12 | inconclusive: 10.3 µM [inhibitor, partial curve] |
| O=C(COC(=O)c1ccc(-c2cnc3ccccc3n2)cc1)c1ccccc1 | inconclusive: 18.4 µM [activator, partial curve] |
| O=C(NCc1ccccc1C(F)(F)F)C1CCC(=O)N(C2CCCCCC2)C1 (stereo not drawn) | inconclusive: 29.1 µM [inhibitor, partial curve, poor fit] |
| c1ccc2c(c1)oc1c(N3CCOCC3)ncnc12 | inconclusive: 20.6 µM [activator, single point] |
| COc1cc(CNC(=O)c2ccc3oc(C(C)C)nc3c2)cc(OC)c1 | inconclusive: 14.6 µM [inhibitor, partial curve] |
| COc1ccccc1CN(C)C(=O)c1cccc(S(=O)(=O)N2CCCc3ccccc32)c1 | inconclusive: 16.4 µM [inhibitor, single point] |
| CCN(CC)c1cc(-c2ccccc2)ncn1 | inconclusive: 20.6 µM [activator, single point] |

Source: PubChem BioAssay AID504467 (National Center for Advancing Translational Sciences (NCATS), 2011)
